# Assay results: PubChem BioAssay AID2284345 (EPA ToxCast)
# Inconclusive results, whose numbers are uncertain, are shown with a selection of clear calls. A potency beside an inconclusive call is a rough fit, not a confirmed value. Calls of active or inactive are those of the source. How the source made its calls: active means hit-call score of the fitted dose curve at least 0.9, where 1 is the maximum; inconclusive means response in the unintended direction; inactive means score below 0.9.
# Tested on: zebrafish Glucocorticoid Receptor (GR), gene 553740
# Assay: ATG_zfGR_EcoTox2: Attagene TRANS-FACTORIAL EcoTox-2 HepG2 Assay for zebrafish Glucocorticoid Receptor (GR)
# Description: ATG_EcoTox2 is a cell-based, multiplexed assay created by modifying the existing Attagene TRANS-FACTORIAL system to include a panel of nuclear receptors from some or all the following species: human (Homo sapiens), african clawed frog (Xenopus laevis), rainbow trout (Oncorhynchus mykiss), japanese medaka (Oryzias latipes), and zebrafish (Danio rerio). The ECOTOX2-FACTORIAL format uses HepG2, a human liver cell line, with measurements taken at 24 hours after chemical dosing in a 24-well plate. ATG_zfGR_EcoTox2 is one of 29 assay components calculated in the ATG_EcoTox2 assay. It is designed to make measurements of mRNA induction, a form of inducible reporter, as detected with fluorescence intensity signals by Reverse transcription polymerase chain reaction (RT-PCR) and Capillary electrophoresis technology.The assay endpoint ATG_zfGR_EcoTox2 was analyzed in the positive analysis fitting direction relative to DMSO as the negative control and baseline of activity. Using a type of inducible reporter, measures of mRNA for gain-of-signal activity can be used to understand the reporter gene at the transcription factor-level as they relate to the gene for glucocorticoid receptor. Furthermore, this assay endpoint can be referred to as a primary readout, because this assay has produced multiple assay endpoints where this one serves a reporter gene function. To generalize the intended target to other relatable targets, this assay endpoint is annotated to the nuclear receptor intended target family, where the subfamily is steroidal.
# Human liver HepG2 cells are transiently transfected with multiple reporter transcription units (MRTUs) in 6-well plates using FuGene 6 reagent (Roche; 3 ml FuGene/1 mg DNA). The MRTU constructs are regulated by a cis-regulating element (promoter). Each RTU expresses a GAL4-UAS that regulates the transcription of a nearby target reporter gene sequence. A major difference between the CIS and TRANS system is that in CIS activities of endogenous TFs are measured, whereas the TRANS assay evaluates changes in activities of exogenous, chimeric NR-Gal4 proteins. […] At the end of 24 hour incubation, total RNA was isolated using TriZol reagent (Invitrogen). The isolated RNA is then reverse-transcribed using oligo(dT) primer and Mo-MLV reverse transcriptase (Invitrogen) with DNAse I (Ambion) treatment for 30 min. The one-tenth of the produced cDNA was amplified by PCR using Taq DNA polymerase (Invitrogen) and two reporter sequence-specific primers. […] The fragments were purified using Qiaquick PCR columns (Qiagen), analyzed on an ABI 3130xL genetic analyzer (Applied Biosystems) with peak positions identified by using a set of X-rhodamine (ROX)-labeled MapMarker1000 molecular weight standards (BioVentures). […]
SMILES,AC50,outcome
[Cl][Sn]([c]1ccccc1)([c]1ccccc1)[c]1ccccc1,inconclusive: 1.39 µM,
CCCCOCN(C(=O)CCl)c1c(CC)cccc1CC,inconclusive: 50 µM,
O=S(=O)(O)C(F)(F)C(F)(F)C(F)(F)C(F)(F)C(F)(F)C(F)(F)F,,inactive
O=C(O)C(F)(F)C(F)(F)C(F)(F)C(F)(F)C(F)(F)C(F)(F)C(F)(F)F,inconclusive: 75 µM,
